Values from PubChem BioAssay AID652243 (Drosophila RNAi Screening Center, 2013)

Screen: 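Fly genes required for human androgen receptor driven transcription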 (primary screen)
System: Drosophila S2R+ cells
Knock-down reagent: long dsRNA against Drosophila genes
Time to read-out: 72 h (48 h, then 24 h hormone)
Treatment: synthetic androgen R1881 at 10 nM for 24 h
Detection: 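Firefly light from an androgen-responsive reporter and Renilla control light per well, raw and unnormalised, for each of two replicates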
Scale: firefly reporter light: higher = more light from androgen-responsive reporter; Renilla control light: higher = more constitutive control signal (cell number, transfection)
Hit rule: 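Across duplicate plates, a knock-down whose log firefly/Renilla ratio shifted a set fold down or up from the GFP/LacZ control mean was a hit; the downward cut appears as both 1.5 and 3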
Meaning of the calls: active = hit: reporter lowered or raised; inactive = no hit
The screen tested about 24,000 reagents; below is a random part of those that have a named target and a result. Over the whole deposit, 246 (1%) were called active. 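Plates not normalised; calls are printed but the firefly/Renilla ratio behind them is not deposited; fold cut for lowering reported inconsistently.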 Raw values are not corrected between plates. A plus sign joins genes that one reagent is predicted to hit. No sequences are given here. The record does not give: the amount of reagent.

| gene knocked down | amplicon | firefly reporter light, replicate 1 | firefly reporter light, replicate 2 | Renilla control light, replicate 1 | Renilla control light, replicate 2 | activity call |
| --- | --- | --- | --- | --- | --- | --- |
| pre-mod(mdg4)-W + pre-mod(mdg4)-Y + mod(mdg4) + 3 more | DRSC16328 | 2.37e5 | 2.59e5 | 3.46e6 | 3.43e6 | inactive |
| mrt (martik) | DRSC15484 | 1.21e5 | 1.39e5 | 2.19e6 | 3.11e6 | inactive |
| mrt (martik) | DRSC29283 | 6.21e5 | 3.55e5 | 1.14e6 | 7.92e5 | inactive |
| Or98P (Odorant receptor 98a pseudogene) | DRSC22948 | 5.93e5 | 9.73e5 | 1.09e6 | 1.49e6 | inactive |
| Or98P (Odorant receptor 98a pseudogene) | DRSC25899 | 3.63e5 | 4.59e5 | 8.92e5 | 7.96e5 | inactive |
| CG31689 | DRSC24715 | 4.32e5 | 6.29e5 | 5.08e5 | 6.82e5 | inactive |
| beta-Man (beta-Mannosidase) | DRSC12208 | 32786 | 67483 | 2.21e5 | 2.68e5 | inactive |
| beta-Man (beta-Mannosidase) | DRSC12209 | 1.53e5 | 1.22e5 | 3.94e6 | 2.78e6 | inactive |
| Jhbp16 (Juvenile hormone binding protein 16) | DRSC15039 | 2.68e5 | 2.80e5 | 2.11e6 | 2.77e6 | inactive |
| mRpL55 (mitochondrial ribosomal protein L55) | DRSC14764 | 2.09e5 | 1.17e5 | 2.55e6 | 2.49e6 | inactive |
| Obp44a (Odorant-binding protein 44a) | DRSC06838 | 2.47e5 | 3.79e5 | 1.51e6 | 1.99e6 | inactive |
| Obp44a (Odorant-binding protein 44a) | DRSC26785 | 2.90e5 | 2.95e5 | 4.79e5 | 5.52e5 | inactive |
| CG15631 | DRSC00466 | 91618 | 1.56e5 | 6.78e5 | 1.04e6 | inactive |
| RpS18 (Ribosomal protein S18) | DRSC07540 | 83339 | 59424 | 1.02e6 | 6.42e5 | inactive |
| CG18336 | DRSC06334 | 2.98e5 | 2.09e5 | 1.71e6 | 1.35e6 | inactive |
| nes (nessy) | DRSC11375 | 2.37e5 | 2.04e5 | 1.95e6 | 2.12e6 | inactive |
| Rbp4 (RNA-binding protein 4) | DRSC16818 | 2.14e5 | 1.19e5 | 2.51e6 | 1.62e6 | inactive |
| Rbp4 (RNA-binding protein 4) | DRSC27818 | 6.12e5 | 5.24e5 | 6.84e5 | 8.35e5 | inactive |
| lobo (lost boys) | DRSC14662 | 1.41e5 | 1.74e5 | 2.63e6 | 2.21e6 | inactive |
| lobo (lost boys) | DRSC14663 | 1.36e5 | 1.72e5 | 1.97e6 | 2.08e6 | inactive |
| lobo (lost boys) | DRSC29681 | 5.16e5 | 7.70e5 | 7.97e5 | 7.97e5 | inactive |
| CG1239 | DRSC12204 | 64843 | 51189 | 4.35e5 | 4.43e5 | inactive |
| CG1239 | DRSC27944 | 6.70e5 | 4.04e5 | 3.00e6 | 1.41e6 | inactive |
| CG10584 | DRSC11624 | 2.73e5 | 2.63e5 | 3.42e6 | 3.24e6 | inactive |

Copied from above for reference:
| gene knocked down | amplicon | firefly reporter light, replicate 1 | firefly reporter light, replicate 2 | Renilla control light, replicate 1 | Renilla control light, replicate 2 | activity call |
| --- | --- | --- | --- | --- | --- | --- |
| beta-Man (beta-Mannosidase) | DRSC12209 | 1.53e5 | 1.22e5 | 3.94e6 | 2.78e6 | inactive |
| Jhbp16 (Juvenile hormone binding protein 16) | DRSC15039 | 2.68e5 | 2.80e5 | 2.11e6 | 2.77e6 | inactive |
